Results: publication PMC11189467
No constants are given. Whether binding was seen depends on the method and setting. Binding seen in cells or lysates may run through a third protein. These calls come from enrichment with a bait or labelling near it, and not all partners need be listed.

By UniProt entry, the sequences of proteins in these tests, tags left out.
UniProt P62316: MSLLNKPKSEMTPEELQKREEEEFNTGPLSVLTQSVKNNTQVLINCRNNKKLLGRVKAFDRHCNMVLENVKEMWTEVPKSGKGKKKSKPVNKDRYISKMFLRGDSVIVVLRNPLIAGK
UniProt Q09472: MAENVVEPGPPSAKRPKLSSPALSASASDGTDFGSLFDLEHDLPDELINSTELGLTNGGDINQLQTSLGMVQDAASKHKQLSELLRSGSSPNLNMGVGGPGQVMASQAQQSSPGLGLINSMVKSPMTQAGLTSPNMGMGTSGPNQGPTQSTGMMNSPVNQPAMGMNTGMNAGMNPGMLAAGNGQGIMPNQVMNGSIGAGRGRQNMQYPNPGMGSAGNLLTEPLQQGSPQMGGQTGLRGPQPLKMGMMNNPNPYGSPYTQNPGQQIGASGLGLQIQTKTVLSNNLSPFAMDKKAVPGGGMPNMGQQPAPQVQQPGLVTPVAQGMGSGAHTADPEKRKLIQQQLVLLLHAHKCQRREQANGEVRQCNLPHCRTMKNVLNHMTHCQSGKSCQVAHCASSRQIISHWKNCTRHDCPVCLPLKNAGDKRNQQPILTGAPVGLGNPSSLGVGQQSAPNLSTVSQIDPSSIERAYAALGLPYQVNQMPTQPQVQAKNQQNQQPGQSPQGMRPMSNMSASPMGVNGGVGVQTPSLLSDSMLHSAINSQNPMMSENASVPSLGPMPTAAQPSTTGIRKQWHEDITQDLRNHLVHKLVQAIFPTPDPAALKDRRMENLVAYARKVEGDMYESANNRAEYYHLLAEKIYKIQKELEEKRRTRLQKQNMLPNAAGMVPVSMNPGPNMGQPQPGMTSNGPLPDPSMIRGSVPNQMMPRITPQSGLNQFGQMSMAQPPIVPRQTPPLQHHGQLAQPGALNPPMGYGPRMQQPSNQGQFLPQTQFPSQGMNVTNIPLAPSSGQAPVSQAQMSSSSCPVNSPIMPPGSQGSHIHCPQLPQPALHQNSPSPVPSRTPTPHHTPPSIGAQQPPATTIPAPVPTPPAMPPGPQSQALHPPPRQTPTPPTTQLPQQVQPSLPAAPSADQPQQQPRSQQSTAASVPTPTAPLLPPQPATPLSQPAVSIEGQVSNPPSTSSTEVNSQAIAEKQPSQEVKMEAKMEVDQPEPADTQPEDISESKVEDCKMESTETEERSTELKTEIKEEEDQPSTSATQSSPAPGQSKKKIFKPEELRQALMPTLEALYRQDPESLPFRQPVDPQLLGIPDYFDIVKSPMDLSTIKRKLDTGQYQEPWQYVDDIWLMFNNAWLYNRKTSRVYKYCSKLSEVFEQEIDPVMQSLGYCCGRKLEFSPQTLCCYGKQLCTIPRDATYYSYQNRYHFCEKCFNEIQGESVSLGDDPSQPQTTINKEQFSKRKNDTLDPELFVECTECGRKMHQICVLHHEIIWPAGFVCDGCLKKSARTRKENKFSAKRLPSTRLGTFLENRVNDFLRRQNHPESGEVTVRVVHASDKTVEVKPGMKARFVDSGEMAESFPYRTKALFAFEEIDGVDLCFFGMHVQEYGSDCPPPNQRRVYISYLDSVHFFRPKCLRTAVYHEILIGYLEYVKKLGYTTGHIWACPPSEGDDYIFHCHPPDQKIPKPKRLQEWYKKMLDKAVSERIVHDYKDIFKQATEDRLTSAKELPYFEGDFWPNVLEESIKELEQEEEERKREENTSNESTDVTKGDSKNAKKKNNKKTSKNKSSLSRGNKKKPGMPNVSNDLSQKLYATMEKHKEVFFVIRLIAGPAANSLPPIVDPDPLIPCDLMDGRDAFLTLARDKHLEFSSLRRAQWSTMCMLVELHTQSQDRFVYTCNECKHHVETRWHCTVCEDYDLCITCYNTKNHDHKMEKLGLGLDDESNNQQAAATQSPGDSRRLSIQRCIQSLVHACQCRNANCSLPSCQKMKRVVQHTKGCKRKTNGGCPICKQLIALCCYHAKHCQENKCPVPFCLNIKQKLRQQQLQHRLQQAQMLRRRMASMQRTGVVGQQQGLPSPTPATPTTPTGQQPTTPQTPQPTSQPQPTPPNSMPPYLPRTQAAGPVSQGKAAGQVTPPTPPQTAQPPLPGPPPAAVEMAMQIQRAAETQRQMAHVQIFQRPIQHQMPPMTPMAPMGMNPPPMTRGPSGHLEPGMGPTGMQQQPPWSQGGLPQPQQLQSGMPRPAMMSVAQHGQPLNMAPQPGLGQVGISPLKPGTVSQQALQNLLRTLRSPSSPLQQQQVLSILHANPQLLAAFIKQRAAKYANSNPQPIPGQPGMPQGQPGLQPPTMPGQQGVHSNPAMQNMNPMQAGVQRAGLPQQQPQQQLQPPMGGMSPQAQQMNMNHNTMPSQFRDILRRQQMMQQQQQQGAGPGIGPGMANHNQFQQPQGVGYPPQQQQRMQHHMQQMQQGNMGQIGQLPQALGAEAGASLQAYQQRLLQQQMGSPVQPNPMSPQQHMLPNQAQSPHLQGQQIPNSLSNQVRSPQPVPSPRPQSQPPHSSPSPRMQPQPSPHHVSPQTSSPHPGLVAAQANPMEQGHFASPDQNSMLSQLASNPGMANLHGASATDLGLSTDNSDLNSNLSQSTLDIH

Biological target: SmD2 (human (endogenous in HCCLM3)) (UniProt P62316)
Assay: affinity purification with mass spectrometry; immunoprecipitation of SmD2 from HCCLM3 cells; eluted by glycine (0.1 M, pH 2.0), neutralised by HEPES, LC-MS/MS

- binding: binds
Substance: acetyltransferase p300 (from UniProt Q09472 1-2414) (enzyme)
